Results on six molecules are retold here after publication PMC10323252.

Sequences of proteins named here, by UniProt entry; tags and fusion partners are left off.
UniProt P62491: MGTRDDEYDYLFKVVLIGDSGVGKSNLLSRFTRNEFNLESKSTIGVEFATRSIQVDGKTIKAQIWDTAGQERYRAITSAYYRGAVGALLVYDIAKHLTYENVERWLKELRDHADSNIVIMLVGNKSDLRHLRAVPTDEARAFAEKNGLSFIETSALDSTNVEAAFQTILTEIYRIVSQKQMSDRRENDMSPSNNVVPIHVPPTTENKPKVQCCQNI

No constants are given. Whether binding was seen depends on the method and setting. In cells and extracts the contact can be indirect. Here binding means that the protein was enriched with, or labelled near, the bait; the list need not be complete. For part of these data: Tags and fused reporters may be left off the sequences shown.

The target in one assay is mycBirA*–Rab11a (UniProt P62491). The assay can be described thus: proximity labelling; BioID: A2780 cells stably expressing mycBirA*-Rab baits (mycBirA* alone as control), 1 uM biotin for 16 h; lysis in 0.4% SDS, 500 mM NaCl buffer; streptavidin microspheres; LC-MS/MS with label-free quantification, four replicates; high-confidence list by SAINTexpress (BFDR<=0.05), longlist by >2-fold enrichment; biotin-modified peptides also scored.

A further assay addresses T1, mycBirA*–Rab25 (UniProt P57735).
T1 sequence: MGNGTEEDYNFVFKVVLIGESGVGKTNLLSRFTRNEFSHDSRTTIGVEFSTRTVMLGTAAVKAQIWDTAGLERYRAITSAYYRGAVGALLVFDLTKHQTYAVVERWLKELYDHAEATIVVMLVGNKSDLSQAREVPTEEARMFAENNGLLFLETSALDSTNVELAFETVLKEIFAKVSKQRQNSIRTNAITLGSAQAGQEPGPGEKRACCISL
The assay is described as above.

B1: SH3BP5L (protein, UniProt Q7L8J4 1-393)
chain: MAELRQVPGGRETPQGELRPEVVEDEVPRSPVAEEPGGGGSSSSEAKLSPREEEELDPRIQEELEHLNQASEEINQVELQLDEARTTYRRILQESARKLNTQGSHLGSCIEKARPYYEARRLAKEAQQETQKAALRYERAVSMHNAAREMVFVAEQGVMADKNRLDPTWQEMLNHATCKVNEAEEERLRGEREHQRVTRLCQQAEARVQALQKTLRRAIGKSRPYFELKAQFSQILEEHKAKVTELEQQVAQAKTRYSVALRNLEQISEQIHARRRGGLPPHPLGPRRSSPVGAEAGPEDMEDGDSGIEGAEGAGLEEGSSLGPGPAPDTDTLSLLSLRTVASDLQKCDSVEHLRGLSDHVSLDGQELGTRSGGRRGSDGGARGGRHQRSVSL
Regarding B1, the binding result with mycBirA*–Rab11a and with mycBirA*–Rab25 was “binds” each time.

B2: OSBPL11 (protein, UniProt Q9BXB4 1-747)
chain: MQGGEPVSTMKVSESEGKLEGQATAVTPNKNSSCGGGISSSSSSRGGSAKGWQYSDHMENVYGYLMKYTNLVTGWQYRFFVLNNEAGLLEYFVNEQSRNQKPRGTLQLAGAVISPSDEDSHTFTVNAASGEQYKLRATDAKERQHWVSRLQICTQHHTEAIGKNNPPLKSRSFSLASSSNSPISQRRPSQNAISFFNVGHSKLQSLSKRTNLPPDHLVEVREMMSHAEGQQRDLIRRIECLPTSGHLSSLDQDLLMLKATSMATMNCLNDCFHILQLQHASHQKGSLPSGTTIEWLEPKISLSNHYKNGADQPFATDQSKPVAVPEEQPVAESGLLAREPEEINADDEIEDTCDHKEDDLGAVEEQRSVILHLLSQLKLGMDLTRVVLPTFILEKRSLLEMYADFMSHPDLFIAITNGATAEDRMIRFVEYYLTSFHEGRKGAIAKKPYNPIIGETFHCSWKMPKSEVASSVFSSSSTQGVTNHAPLSGESLTQVGSDCYTVRFVAEQVSHHPPVSGFYAECTERKMCVNAHVWTKSKFLGMSIGVTMVGEGILSLLEHGEEYTFSLPCAYARSILTVPWVELGGKVSVNCAKTGYSASITFHTKPFYGGKLHRVTAEVKHNITNTVVCRVQGEWNSVLEFTYSNGETKYVDLTKLAVTKKRVRPLEKQDPFESRRLWKNVTDSLRESEIDKATEHKHTLEERQRTEERHRTETGTPWKTKYFIKEGDGWVYHKPLWKIIPTTQPAE
As for B2, the binding entry in the assay with mycBirA*–Rab11a and with mycBirA*–Rab25 was “binds” in each case.

B3: KIAA1468 (protein, UniProt Q9P260 1-1216)
chain: MAAMAPGGSGSGGGVNPFLSDSDEDDDEVAATEERRAVLRLGAGSGLDPGSAGSLSPQDPVALGSSARPGLPGEASAAAVALGGTGETPARLSIDAIAAQLLRDQYLLTALELHTELLESGRELPRLRDYFSNPGNFERQSGTPPGMGAPGVPGAAGVGGAGGREPSTASGGGQLNRAGSISTLDSLDFARYSDDGNRETDEKVAVLEFELRKAKETIQALRANLTKAAEHEVPLQERKNYKSSPEIQEPIKPLEKRALNFLVNEFLLKNNYKLTSITFSDENDDQDFELWDDVGLNIPKPPDLLQLYRDFGNHQVTGKDLVDVASGVEEDELEALTPIISNLPPTLETPQPAENSMLVQKLEDKISLLNSEKWSLMEQIRRLKSEMDFLKNEHFAIPAVCDSVQPPLDQLPHKDSEDSGQHPDVNSSDKGKNTDIHLSISDEADSTIPKENSPNSFPRREREGMPPSSLSSKKTVHFDKPNRKLSPAFHQALLSFCRMSADSRLGYEVSRIADSEKSVMLMLGRCLPHIVPNVLLAKREELIPLILCTACLHPEPKERDQLLHILFNLIKRPDDEQRQMILTGCVAFARHVGPTRVEAELLPQCWEQINHKYPERRLLVAESCGALAPYLPKEIRSSLVLSMLQQMLMEDKADLVREAVIKSLGIIMGYIDDPDKYHQGFELLLSALGDPSERVVSATHQVFLPAYAAWTTELGNLQSHLILTLLNKIEKLLREGEHGLDEHKLHMYLSALQSLIPSLFALVLQNAPFSSKAKLHGEVPQIEVTRFPRPMSPLQDVSTIIGSREQLAVLLQLYDYQLEQEGTTGWESLLWVVNQLLPQLIEIVGKINVTSTACVHEFSRFFWRLCRTFGKIFTNTKVKPQFQEILRLSEENIDSSAGNGVLTKATVPIYATGVLTCYIQEEDRKLLVGFLEDVMTLLSLSHAPLDSLKASFVELGANPAYHELLLTVLWYGVVHTSALVRCTAARMFELTLRGMSEALVDKRVAPALVTLSSDPEFSVRIATIPAFGTIMETVIQRELLERVKMQLASFLEDPQYQDQHSLHTEIIKTFGRVGPNAEPRFRDEFVIPHLHKLALVNNLQIVDSKRLDIATHLFEAYSALSCCFISEDLMVNHFLPGLRCLRTDMEHLSPEHEVILSSMIKECEQKVENKTVQEPQGSMSIAASLVSEDTKTKFLNKMGQLTTSGAMLANVFQRKK
Regarding B3, the binding result with mycBirA*–Rab11a and with mycBirA*–Rab25 was “binds” throughout.

B4: RABL6 (protein, UniProt Q3YEC7 1-729)
chain: MFSALKKLVGSDQAPGRDKNIPAGLQSMNQALQRRFAKGVQYNMKIVIRGDRNTGKTALWHRLQGRPFVEEYIPTQEIQVTSIHWSYKTTDDIVKVEVWDVVDKGKCKKRGDGLKMENDPQEAESEMALDAEFLDVYKNCNGVVMMFDITKQWTFNYILRELPKVPTHVPVCVLGNYRDMGEHRVILPDDVRDFIDNLDRPPGSSYFRYAESSMKNSFGLKYLHKFFNIPFLQLQRETLLRQLETNQLDMDATLEELSVQQETEDQNYGIFLEMMEARSRGHASPLAANGQSPSPGSQSPVVPAGAVSTGSSSPGTPQPAPQLPLNAAPPSSVPPVPPSEALPPPACPSAPAPRRSIISRLFGTSPATEAAPPPPEPVPAAEGPATVQSVEDFVPDDRLDRSFLEDTTPARDEKKVGAKAAQQDSDSDGEALGGNPMVAGFQDDVDLEDQPRGSPPLPAGPVPSQDITLSSEEEAEVAAPTKGPAPAPQQCSEPETKWSSIPASKPRRGTAPTRTAAPPWPGGVSVRTGPEKRSSTRPPAEMEPGKGEQASSSESDPEGPIAAQMLSFVMDDPDFESEGSDTQRRADDFPVRDDPSDVTDEDEGPAEPPPPPKLPLPAFRLKNDSDLFGLGLEEAGPKESSEEGKEGKTPSKEKKKKKKKGKEEEEKAAKKKSKHKKSKDKEEGKEERRRRQQRPPRSRERTAADELEAFLGGGAPGGRHPGGGDYEEL
Turning to B4, the binding result with mycBirA*–Rab11a and in the assay with mycBirA*–Rab25 was “binds” throughout.

B5: OSBPL9 (protein, UniProt Q96SU4 1-736)
chain: MASIMEGPLSKWTNVMKGWQYRWFVLDYNAGLLSYYTSKDKMMRGSRRGCVRLRGAVIGIDDEDDSTFTITVDQKTFHFQARDADEREKWIHALEETILRHTLQLQGLDSGFVPSVQDFDKKLTEADAYLQILIEQLKLFDDKLQNCKEDEQRKKIETLKETTNSMVESIKHCIVLLQIAKDQSNAEKHADGMISTINPVDAIYQPSPLEPVISTMPSQTVLPPEPVQLCKSEQRPSSLPVGPVLATLGHHQTPTPNSTGSGHSPPSSSLTSPSHVNLSPNTVPEFSYSSSEDEFYDADEFHQSGSSPKRLIDSSGSASVLTHSSSGNSLKRPDTTESLNSSLSNGTSDADLFDSHDDRDDDAEAGSVEEHKSVIMHLLSQVRLGMDLTKVVLPTFILERRSLLEMYADFFAHPDLFVSISDQKDPKDRMVQVVKWYLSAFHAGRKGSVAKKPYNPILGEIFQCHWTLPNDTEENTELVSEGPVPWVSKNSVTFVAEQVSHHPPISAFYAECFNKKIQFNAHIWTKSKFLGMSIGVHNIGQGCVSCLDYDEHYILTFPNGYGRSILTVPWVELGGECNINCSKTGYSANIIFHTKPFYGGKKHRITAEIFSPNDKKSFCSIEGEWNGVMYAKYATGENTVFVDTKKLPIIKKKVRKLEDQNEYESRSLWKDVTFNLKIRDIDAATEAKHRLEERQRAEARERKEKEIQWETRLFHEDGECWVYDEPLLKRLGAAKH
Take B5: the binding result with mycBirA*–Rab11a and with mycBirA*–Rab25 was “binds” in each case.

B6: Rab11-family-interacting protein (FIP) 1 (protein, UniProt Q6WKZ4 1-1283)
chain: MSLMVSAGRGLGAVWSPTHVQVTVLQARGLRAKGPGGTSDAYAVIQVGKEKYATSVSERSLGAPVWREEATFELPSLLSSGPAAAATLQLTVLHRALLGLDKFLGRAEVDLRDLHRDQGRRKTQWYKLKSKPGKKDKERGEIEVDIQFMRNNMTASMFDLSMKDKSRNPFGKLKDKIKGKNKDSGSDTASAIIPSTTPSVDSDDESVVKDKKKKSKIKTLLSKSNLQKTPLSQSMSVLPTSKPEKVLLRPGDFQSQWDEDDNEDESSSASDVMSHKRTASTDLKQLNQVNFTLPKKEGLSFLGGLRSKNDVLSRSNVCINGNHVYLEQPEAKGEIKDSSPSSSPSPKGFRKKHLFSSTENLAAGSWKEPAEGGGLSSDRQLSESSTKDSLKSMTLPSYRPAPLVSGDLRENMAPANSEATKEAKESKKPESRRSSLLSLMTGKKDVAKGSEGENPLTVPGREKEGMLMGVKPGEDASGPAEDLVRRSEKDTAAVVSRQGSSLNLFEDVQITEPEAEPESKSEPRPPISSPRAPQTRAVKPRLEVSPEAQPTARLPSPTDSPSSLPPLPSSSGQASVPSELGHGADTQSSESPSVFSSLSSPIAAPISTSTPIESWPLVDRGQAKSEGPPLLPKAELQTESLTPVPNSGSSALGSLFKQPSFPANKGTEDSLMGRTRETGTEKNTSSLELEESLPEQPETGRQEEELPRFPCKKQDYSPSSGEAQEVPFALSLSSDGAVSPVGELAAGGDRDLESQAGSLVESKARDAAEEVAPPLPMGASVPSIDSMMRKLEEMGLNLRKDQKKTKKRVSFSEQLFTEEAVAGAALLVEGHSSCPQELNPAWSVAGNASDGEPPESPHAEDSERESVTTPGPATCGAPASPADHLLLPSQEESFSEVPMSEASSAKDTPLFRMEGEDALVTQYQSKASDHEGLLSDPLSDLQLVSDFKSPIMADLNLSLPSIPEVASDDERIDQVEDDGDQVEDDGETAKSSTLDIGALSLGLVVPCPERGKGPSGEADRLVLGEGLCDFRLQAPQASVTAPSEQTTEFGIHKPHLGKSSSLDKQLPGPSGGEEEKPMGNGSPSPPPGTSLDNPVPSPSPSEIFPVTHSFPSSAHSDTHHTSTAESQKKATAEGSAGRVENFGKRKPLLQAWVSPSETHPVSAQPGAGTGSAKHRLHPVKPMNAMATKVANCSLGTATIISENLNNEVMMKKYSPSDPAFAYAQLTHDELIQLVLKQKETISKKEFQVRELEDYIDNLLVRVMEETPNILRIPTQVGKKAGKM
B6: the binding result with mycBirA*–Rab11a and with mycBirA*–Rab25 was “binds” each time.
